Measured data: PubChem BioAssay AID1159601 (NIAID, 2016)
Here is a random part of 756 reagents. 143 of all reagents (19%) count as active. 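Calls include both lowered and raised reporter signal; each row is a single siRNA, not a gene summary; Pam3CSK4 dose not stated.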 Reagents against one gene are numbered here. Not given: the amount of reagent.

- Aim: 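Knock-down of 126 canonical TLR pathway genes, testing the TNF response to a TLR2 ligand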 (primary screen)
- Cell system: human THP-1 reporter cells differentiated with PMA into macrophage-like cells
- Reagent: single siRNA against human genes
- Duration: ligand added 4 hours before read-out; cells assayed 48 to 72 hours after siRNA transfection
- Conditions: Pam3CSK4 (TLR2 ligand) for 4 hours; dose not given
- Measured: 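TNF promoter dual-luciferase ratio measured 4 h after Pam3CSK4, converted to robust z-scores against negative controls and averaged across replicates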
- Reading the numbers: TNF reporter z-score: higher = stronger TNF promoter reporter activity
- Active means: 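The depositor grades each siRNA by the size of its mean z-score in either direction, with steps at 1, 1.5, 2 and 2.5; active calls sit near -1.5 or below, or near 1.5 or above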
- Meaning of the calls: active = clear change (up or down); inactive = little change

Target gene	siRNA no.	TNF reporter z-score, replicate mean	Outcome
CD14	1	0.432	inactive
CD14	2	0.00714	inactive
CD14	3	1.75	active
CD14	4	-0.361	inactive
CD14	5	0.257	inactive
CD14	6	0.272	inactive
EP300	1	1.05	inactive
EP300	2	0.135	inactive
EP300	3	0.371	inactive
EP300	4	0.2	inactive
EP300	5	-0.424	inactive
EP300	6	1.33	inactive
MAP2K4	1	-1.67	active
MAP2K4	2	-1.77	active
MAP2K4	3	-0.718	inactive
MAP2K4	4	-0.225	inactive
MAP2K4	5	0.158	inactive
MAP2K4	6	0.127	inactive
TRAF3	1	0.283	inactive
TRAF3	2	-0.738	inactive
TRAF3	3	-0.443	inactive
TRAF3	4	-0.421	inactive
TRAF3	5	-1.35	inactive
TRAF3	6	0.098	inactive
MAPK11	1	-0.126	inactive
MAPK11	2	-0.662	inactive
MAPK11	3	-0.0964	inactive
MAPK11	4	0.038	inactive
MAPK11	5	1.28	inactive
MAPK11	6	0.0131	inactive
MAPK12	1	-0.137	inactive
MAPK12	2	0.0939	inactive
MAPK12	3	-0.892	inactive
MAPK12	4	-0.679	inactive
MAPK12	5	-0.141	inactive
MAPK12	6	-0.904	inactive
AKT2	1	-0.361	inactive
AKT2	2	-0.557	inactive
AKT2	3	1.28	inactive
AKT2	4	-0.176	inactive
AKT2	5	0.648	inactive
AKT2	6	1.8	active
TNFAIP3	1	-0.701	inactive
TNFAIP3	2	0.76	inactive
TNFAIP3	3	-0.548	inactive
TNFAIP3	4	-0.808	inactive
TNFAIP3	5	-0.156	inactive
TNFAIP3	6	-1.64	active
MAPK3	1	-1.09	inactive
MAPK3	2	-0.174	inactive
MAPK3	3	-1.64	active
MAPK3	4	0.274	inactive
MAPK3	5	-0.872	inactive
MAPK3	6	-1.94	active
PTPN6	1	-0.473	inactive
PTPN6	2	0.434	inactive
PTPN6	3	-0.349	inactive
PTPN6	4	-1.85	active
PTPN6	5	-1.01	inactive
PTPN6	6	-0.413	inactive
CXCL9	1	-0.764	inactive
CXCL9	2	-0.951	inactive
CXCL9	3	-1.16	inactive
CXCL9	4	-1.24	inactive
CXCL9	5	-0.0966	inactive
CXCL9	6	0.131	inactive
IRAK2	1	0.338	inactive
IRAK2	2	1.3	inactive
IRAK2	3	-0.295	inactive
IRAK2	4	-0.3	inactive
IRAK2	5	-0.374	inactive
IRAK2	6	-0.527	inactive
CCL3	1	-1.21	inactive
CCL3	2	-0.313	inactive
CCL3	3	0.0509	inactive
CCL3	4	-0.208	inactive
CCL3	5	-0.486	inactive
CCL3	6	-0.156	inactive
IKBKG	1	-2.37	active
IKBKG	2	-0.994	inactive
IKBKG	3	-0.811	inactive
IKBKG	4	-1.52	active
IKBKG	5	1.83	active
IKBKG	6	-0.136	inactive
ITGAM	1	1.4	inactive
ITGAM	2	-1.47	inactive
ITGAM	3	-0.975	inactive
ITGAM	4	-0.446	inactive
ITGAM	5	-0.545	inactive
ITGAM	6	0.369	inactive
BTK	1	-0.321	inactive
BTK	2	1.65	active
BTK	3	-1.63	active
BTK	4	-0.752	inactive
BTK	5	1.46	inactive
BTK	6	-0.868	inactive
ATF2	1	-2.34	active
ATF2	2	-0.538	inactive
ATF2	3	0.0846	inactive
ATF2	4	0.309	inactive
ATF2	5	0.241	inactive
ATF2	6	-1.97	active
PIK3CD	1	-0.435	inactive
PIK3CD	2	-0.651	inactive
PIK3CD	3	0.228	inactive
PIK3CD	4	0.417	inactive
PIK3CD	5	0.761	inactive
PIK3CD	6	0.232	inactive
REL	1	-0.835	inactive
REL	2	-1.09	inactive
REL	3	0.0462	inactive
REL	4	-1.54	active
REL	5	-0.463	inactive
REL	6	0.172	inactive

Reagents above marked active, once more:
Target gene	siRNA no.	TNF reporter z-score, replicate mean	Outcome
CD14	3	1.75	active
MAP2K4	1	-1.67	active
MAP2K4	2	-1.77	active
AKT2	6	1.8	active
TNFAIP3	6	-1.64	active
MAPK3	3	-1.64	active
MAPK3	6	-1.94	active
PTPN6	4	-1.85	active
IKBKG	1	-2.37	active
IKBKG	4	-1.52	active
IKBKG	5	1.83	active
BTK	2	1.65	active
BTK	3	-1.63	active
ATF2	1	-2.34	active
ATF2	6	-1.97	active
REL	4	-1.54	active
